Experimental data reported in article doi:10.1101/2025.04.18.649622.
These are yes or no findings as the source states them, for the method shown. Binding seen in cells or lysates may run through a third protein. Some binding calls cover weakened binding; strength is not graded here. Sequences can lack the tags named with a protein.

Protein sequences, listed by entry. Tags and fused reporters are not part of them.
UniProt Q9H792: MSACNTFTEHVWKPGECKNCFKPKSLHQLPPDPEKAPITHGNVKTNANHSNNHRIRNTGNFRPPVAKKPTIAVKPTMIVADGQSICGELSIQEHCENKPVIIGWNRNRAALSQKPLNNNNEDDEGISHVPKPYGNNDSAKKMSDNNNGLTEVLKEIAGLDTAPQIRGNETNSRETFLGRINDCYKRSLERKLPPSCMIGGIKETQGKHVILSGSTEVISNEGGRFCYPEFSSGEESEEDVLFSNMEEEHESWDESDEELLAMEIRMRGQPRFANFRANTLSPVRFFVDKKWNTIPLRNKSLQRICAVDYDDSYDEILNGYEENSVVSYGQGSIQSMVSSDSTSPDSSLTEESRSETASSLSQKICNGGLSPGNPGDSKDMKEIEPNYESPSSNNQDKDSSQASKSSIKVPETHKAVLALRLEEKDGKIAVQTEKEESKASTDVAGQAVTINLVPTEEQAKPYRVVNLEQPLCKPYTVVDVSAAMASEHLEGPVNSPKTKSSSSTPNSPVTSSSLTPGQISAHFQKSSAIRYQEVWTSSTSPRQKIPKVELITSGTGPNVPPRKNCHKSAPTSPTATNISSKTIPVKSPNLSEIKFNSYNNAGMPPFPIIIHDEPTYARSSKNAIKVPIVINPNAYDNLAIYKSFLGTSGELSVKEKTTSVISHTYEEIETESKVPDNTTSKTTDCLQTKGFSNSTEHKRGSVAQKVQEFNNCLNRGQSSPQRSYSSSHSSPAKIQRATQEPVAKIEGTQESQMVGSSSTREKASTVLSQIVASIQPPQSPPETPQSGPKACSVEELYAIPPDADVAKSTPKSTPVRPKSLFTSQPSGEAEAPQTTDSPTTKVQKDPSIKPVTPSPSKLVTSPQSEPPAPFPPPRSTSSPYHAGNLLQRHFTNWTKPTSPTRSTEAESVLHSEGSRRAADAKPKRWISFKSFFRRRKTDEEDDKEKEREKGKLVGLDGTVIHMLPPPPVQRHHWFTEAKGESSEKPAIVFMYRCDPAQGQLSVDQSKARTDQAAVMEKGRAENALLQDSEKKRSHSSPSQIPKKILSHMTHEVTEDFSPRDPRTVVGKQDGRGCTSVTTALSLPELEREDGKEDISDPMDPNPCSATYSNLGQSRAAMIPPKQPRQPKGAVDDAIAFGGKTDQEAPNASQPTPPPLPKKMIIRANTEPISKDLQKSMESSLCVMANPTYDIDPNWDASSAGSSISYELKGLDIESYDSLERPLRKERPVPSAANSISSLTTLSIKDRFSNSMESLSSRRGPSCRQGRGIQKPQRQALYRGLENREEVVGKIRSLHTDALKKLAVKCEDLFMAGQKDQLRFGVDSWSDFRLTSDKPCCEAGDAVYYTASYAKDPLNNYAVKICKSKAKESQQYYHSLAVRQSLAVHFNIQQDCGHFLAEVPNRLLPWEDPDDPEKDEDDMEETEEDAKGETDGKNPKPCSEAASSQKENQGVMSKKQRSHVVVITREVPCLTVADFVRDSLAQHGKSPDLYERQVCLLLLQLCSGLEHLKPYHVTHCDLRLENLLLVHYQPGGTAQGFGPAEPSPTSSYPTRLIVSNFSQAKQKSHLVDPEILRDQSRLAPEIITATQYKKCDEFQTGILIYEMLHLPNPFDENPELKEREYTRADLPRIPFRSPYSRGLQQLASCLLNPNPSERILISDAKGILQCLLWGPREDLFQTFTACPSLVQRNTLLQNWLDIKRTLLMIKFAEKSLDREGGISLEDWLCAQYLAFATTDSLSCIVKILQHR

Biological target: T1, FLAG-RHOV in RHOV-overexpressing cells (UniProt Q96L33)
T1 sequence: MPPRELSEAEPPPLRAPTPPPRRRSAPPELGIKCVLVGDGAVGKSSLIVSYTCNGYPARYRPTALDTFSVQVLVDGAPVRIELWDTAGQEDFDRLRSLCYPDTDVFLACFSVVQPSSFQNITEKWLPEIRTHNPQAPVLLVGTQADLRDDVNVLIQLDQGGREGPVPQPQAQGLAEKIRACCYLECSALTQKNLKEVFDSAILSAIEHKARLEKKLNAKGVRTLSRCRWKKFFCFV
Assay: co-IP

Question: Which binding does the source give for “Pseudopodium Enriched Atypical Kinase 1 (PEAK1) (from UniProt Q9H792 1-1746)” here?
Answer: binds
